Measured values: the supplement of paper PMC10849652
The other results are listed elsewhere or left out.

The chains behind the UniProt entries cited, without tags or fusion partners. Where a name states a change or a piece, a line headed by the entry shows the natural chain unless it says otherwise.
UniProt O75323: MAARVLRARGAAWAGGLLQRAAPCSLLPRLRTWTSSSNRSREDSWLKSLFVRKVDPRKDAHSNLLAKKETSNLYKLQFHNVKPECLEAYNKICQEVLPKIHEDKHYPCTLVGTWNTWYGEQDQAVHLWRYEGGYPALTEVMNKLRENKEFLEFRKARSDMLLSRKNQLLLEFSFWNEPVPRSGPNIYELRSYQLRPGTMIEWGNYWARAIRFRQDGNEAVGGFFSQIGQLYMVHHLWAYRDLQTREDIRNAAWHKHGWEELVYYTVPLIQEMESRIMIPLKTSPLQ
UniProt Q96PY6: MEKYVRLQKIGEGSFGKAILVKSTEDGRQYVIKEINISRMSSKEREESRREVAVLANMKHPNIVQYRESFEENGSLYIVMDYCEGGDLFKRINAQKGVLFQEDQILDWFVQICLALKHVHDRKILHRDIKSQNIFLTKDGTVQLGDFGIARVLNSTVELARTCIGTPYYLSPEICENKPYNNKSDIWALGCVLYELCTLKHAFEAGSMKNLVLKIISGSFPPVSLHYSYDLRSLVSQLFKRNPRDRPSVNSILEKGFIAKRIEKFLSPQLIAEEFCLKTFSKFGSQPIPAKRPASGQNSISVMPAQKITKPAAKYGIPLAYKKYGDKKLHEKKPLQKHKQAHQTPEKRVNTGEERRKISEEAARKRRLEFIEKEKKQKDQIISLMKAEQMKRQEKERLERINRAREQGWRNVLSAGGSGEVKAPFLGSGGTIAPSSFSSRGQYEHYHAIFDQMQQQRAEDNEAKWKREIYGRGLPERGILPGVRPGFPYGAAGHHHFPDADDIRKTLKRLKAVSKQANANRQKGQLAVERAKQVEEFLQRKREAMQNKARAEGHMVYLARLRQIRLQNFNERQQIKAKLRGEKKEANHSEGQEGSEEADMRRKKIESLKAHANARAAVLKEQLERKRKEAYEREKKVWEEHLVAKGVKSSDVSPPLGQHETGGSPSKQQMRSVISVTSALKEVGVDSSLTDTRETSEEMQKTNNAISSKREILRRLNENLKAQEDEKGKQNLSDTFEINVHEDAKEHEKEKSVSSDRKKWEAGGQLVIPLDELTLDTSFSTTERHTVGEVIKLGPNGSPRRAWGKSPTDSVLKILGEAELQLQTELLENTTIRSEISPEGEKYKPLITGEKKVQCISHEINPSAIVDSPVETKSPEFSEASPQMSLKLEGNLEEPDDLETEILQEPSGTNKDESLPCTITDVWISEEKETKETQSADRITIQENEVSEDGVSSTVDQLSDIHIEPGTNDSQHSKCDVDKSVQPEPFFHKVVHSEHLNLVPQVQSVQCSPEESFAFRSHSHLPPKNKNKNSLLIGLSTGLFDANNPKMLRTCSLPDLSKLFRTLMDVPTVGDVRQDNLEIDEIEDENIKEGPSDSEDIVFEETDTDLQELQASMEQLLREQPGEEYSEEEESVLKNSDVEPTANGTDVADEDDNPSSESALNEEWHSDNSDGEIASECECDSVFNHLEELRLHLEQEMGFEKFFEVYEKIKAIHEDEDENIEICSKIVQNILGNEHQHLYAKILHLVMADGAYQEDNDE
UniProt Q9NPE2: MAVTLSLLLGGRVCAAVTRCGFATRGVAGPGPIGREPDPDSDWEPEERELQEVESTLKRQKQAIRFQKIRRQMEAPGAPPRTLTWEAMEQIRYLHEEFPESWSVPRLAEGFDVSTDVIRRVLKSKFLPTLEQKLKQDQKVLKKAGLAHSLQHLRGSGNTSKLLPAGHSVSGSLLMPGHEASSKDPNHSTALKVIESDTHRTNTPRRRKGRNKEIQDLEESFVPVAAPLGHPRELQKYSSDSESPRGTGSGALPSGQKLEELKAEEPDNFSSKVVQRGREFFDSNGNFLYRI
UniProt Q96PU5: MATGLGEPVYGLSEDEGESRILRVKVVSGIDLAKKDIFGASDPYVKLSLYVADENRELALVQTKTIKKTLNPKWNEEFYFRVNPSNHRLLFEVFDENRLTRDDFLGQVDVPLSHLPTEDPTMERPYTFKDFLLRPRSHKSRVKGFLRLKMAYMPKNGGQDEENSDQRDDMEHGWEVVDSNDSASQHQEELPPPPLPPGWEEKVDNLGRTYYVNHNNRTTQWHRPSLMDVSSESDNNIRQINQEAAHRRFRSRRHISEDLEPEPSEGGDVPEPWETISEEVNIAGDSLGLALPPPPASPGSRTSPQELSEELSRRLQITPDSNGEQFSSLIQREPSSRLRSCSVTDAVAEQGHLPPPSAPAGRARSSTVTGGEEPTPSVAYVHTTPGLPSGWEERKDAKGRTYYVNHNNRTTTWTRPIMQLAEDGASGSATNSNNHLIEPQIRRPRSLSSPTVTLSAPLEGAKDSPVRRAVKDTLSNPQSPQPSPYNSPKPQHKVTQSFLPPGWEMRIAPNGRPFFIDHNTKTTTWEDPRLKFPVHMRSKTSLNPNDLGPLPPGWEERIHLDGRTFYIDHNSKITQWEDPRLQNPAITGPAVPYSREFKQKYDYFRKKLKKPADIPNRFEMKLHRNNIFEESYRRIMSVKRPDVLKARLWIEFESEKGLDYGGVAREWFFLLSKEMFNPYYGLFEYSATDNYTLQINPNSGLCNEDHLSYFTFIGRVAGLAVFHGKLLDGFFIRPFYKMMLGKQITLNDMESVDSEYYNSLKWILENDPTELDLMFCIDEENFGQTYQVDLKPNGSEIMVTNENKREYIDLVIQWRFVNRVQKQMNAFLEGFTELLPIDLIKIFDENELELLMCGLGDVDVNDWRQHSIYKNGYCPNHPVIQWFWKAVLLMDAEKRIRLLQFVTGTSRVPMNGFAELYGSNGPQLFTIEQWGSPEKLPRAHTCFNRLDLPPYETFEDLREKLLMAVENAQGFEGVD
UniProt P56556, whole entry, looked up: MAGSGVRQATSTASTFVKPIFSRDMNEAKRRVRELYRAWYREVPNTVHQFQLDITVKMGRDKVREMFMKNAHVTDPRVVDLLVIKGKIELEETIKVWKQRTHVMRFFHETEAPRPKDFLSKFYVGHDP
UniProt O43920, whole entry, looked up: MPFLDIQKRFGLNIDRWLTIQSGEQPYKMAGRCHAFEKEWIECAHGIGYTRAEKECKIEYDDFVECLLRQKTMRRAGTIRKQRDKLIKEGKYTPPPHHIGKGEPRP
UniProt P35240: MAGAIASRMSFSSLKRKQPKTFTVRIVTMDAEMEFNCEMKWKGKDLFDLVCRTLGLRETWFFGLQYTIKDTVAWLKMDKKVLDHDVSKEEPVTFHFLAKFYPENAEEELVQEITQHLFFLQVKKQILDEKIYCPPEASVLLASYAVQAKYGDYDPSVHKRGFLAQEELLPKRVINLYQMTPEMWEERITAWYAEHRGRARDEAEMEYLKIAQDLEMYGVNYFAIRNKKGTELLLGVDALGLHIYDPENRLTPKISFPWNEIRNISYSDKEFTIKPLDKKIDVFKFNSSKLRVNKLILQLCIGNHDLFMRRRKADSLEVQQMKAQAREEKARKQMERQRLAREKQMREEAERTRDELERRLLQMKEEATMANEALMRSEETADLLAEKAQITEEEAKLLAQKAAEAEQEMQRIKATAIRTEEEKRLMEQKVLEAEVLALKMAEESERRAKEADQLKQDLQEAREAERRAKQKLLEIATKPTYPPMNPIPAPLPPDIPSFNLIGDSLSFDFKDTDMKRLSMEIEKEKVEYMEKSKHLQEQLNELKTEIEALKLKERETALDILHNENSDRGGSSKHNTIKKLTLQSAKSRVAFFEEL
UniProt P51956: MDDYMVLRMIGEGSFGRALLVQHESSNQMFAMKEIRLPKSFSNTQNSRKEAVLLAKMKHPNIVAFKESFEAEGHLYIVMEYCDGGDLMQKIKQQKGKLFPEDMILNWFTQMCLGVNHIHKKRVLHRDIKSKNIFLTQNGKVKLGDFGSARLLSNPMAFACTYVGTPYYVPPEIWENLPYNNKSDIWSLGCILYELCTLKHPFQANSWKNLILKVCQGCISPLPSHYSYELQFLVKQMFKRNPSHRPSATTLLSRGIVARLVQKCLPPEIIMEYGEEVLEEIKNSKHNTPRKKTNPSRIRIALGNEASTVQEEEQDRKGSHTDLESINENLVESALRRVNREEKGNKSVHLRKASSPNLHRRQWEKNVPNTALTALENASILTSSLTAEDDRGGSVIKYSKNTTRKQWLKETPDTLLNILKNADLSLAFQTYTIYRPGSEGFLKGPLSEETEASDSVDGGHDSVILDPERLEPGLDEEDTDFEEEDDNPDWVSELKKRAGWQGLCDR
UniProt O43674, whole entry, looked up: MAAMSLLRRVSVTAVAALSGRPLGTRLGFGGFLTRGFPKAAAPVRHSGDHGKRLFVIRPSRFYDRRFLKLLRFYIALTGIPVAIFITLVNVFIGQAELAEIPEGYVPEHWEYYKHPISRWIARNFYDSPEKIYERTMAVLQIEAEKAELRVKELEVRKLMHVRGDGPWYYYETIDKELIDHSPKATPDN
UniProt O95139, whole entry, looked up: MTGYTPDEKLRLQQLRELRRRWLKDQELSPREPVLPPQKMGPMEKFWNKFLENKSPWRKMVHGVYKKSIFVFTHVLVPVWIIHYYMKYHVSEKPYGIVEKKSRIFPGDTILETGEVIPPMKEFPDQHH
UniProt O95169, whole entry, looked up: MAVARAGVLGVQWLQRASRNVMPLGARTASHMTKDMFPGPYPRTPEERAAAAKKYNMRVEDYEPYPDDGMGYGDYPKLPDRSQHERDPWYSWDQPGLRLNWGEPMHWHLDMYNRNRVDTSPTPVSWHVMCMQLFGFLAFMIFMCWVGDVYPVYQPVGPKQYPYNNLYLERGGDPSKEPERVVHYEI
UniProt Q7Z628: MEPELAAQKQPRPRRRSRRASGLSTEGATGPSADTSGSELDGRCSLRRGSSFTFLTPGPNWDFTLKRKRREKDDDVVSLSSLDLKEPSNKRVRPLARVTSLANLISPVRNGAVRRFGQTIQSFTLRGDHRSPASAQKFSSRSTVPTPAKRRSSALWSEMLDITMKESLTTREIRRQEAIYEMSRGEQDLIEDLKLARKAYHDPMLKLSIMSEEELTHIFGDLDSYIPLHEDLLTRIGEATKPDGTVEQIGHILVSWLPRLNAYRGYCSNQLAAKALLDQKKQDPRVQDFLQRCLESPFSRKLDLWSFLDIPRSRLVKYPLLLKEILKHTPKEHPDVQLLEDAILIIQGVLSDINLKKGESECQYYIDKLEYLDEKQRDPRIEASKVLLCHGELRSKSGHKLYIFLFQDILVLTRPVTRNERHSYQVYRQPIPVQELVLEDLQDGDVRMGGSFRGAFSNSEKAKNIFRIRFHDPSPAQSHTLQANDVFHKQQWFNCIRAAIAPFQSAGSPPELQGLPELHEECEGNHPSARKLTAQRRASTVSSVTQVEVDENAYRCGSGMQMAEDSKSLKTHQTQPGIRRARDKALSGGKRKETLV
UniProt Q6P4R8, whole entry, looked up: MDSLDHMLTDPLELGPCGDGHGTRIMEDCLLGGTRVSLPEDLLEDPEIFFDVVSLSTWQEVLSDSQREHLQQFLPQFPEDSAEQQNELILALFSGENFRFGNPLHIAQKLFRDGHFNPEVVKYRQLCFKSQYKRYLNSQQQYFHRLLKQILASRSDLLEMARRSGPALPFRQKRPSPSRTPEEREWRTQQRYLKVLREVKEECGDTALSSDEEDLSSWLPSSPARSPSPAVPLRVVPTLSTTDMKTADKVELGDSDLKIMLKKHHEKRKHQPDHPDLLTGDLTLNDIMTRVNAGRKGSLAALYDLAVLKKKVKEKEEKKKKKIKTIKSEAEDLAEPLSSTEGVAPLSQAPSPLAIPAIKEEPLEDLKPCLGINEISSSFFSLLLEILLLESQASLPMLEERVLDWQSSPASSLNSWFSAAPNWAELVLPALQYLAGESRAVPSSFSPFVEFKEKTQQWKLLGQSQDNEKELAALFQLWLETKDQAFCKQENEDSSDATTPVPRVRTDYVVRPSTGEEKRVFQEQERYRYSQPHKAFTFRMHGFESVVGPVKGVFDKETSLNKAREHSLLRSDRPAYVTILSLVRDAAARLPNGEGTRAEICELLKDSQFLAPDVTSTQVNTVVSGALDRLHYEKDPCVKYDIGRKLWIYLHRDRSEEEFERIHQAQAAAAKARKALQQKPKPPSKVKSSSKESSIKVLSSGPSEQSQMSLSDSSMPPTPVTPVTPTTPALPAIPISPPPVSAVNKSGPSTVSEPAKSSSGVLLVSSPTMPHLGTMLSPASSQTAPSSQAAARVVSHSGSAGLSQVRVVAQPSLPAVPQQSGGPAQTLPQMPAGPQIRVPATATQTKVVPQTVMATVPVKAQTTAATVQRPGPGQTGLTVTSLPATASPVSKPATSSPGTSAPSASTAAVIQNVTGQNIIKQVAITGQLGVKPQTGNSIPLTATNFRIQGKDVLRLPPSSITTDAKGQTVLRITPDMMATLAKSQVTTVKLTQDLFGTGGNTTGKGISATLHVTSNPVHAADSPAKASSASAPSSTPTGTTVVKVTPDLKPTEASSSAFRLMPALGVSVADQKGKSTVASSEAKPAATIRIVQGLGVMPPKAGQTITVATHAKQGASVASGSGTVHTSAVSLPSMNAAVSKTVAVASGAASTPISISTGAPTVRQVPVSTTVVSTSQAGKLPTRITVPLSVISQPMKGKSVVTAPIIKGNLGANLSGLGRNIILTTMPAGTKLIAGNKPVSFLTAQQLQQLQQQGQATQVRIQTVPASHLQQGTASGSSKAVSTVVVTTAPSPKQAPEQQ

Tests used:
Assay in all cases: log2 fold change, soluble protein after heating vs DMSO (PISA); higher = thermal stabilisation; K562 lysate, 10 uM; active = over 0.2 and 3.5 SD of the protein, either way, in both replicates (recomputed)
[1] = compound: Cc1cn(-c2cc(NC(=O)c3ccc(C)c(Nc4nccc(-c5cccnc5)n4)c3)cc(C(F)(F)F)c2)cn1 [nilotinib]
In short: (§1)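 Log-two fold change in thermal stability relative to solvent controls is reported from duplicates. For each sample, crude K562 extract from dounce-homogenised pellets in PBS pH 7.4 with 1 mM MgCl2, at 1 mg/mL protein, was treated with 10 μM compound for 30 min. Aliquots heated for 3 min across 48°C-58°C were pooled, brought to 0.5% NP-40 at 4°C and cleared at 21,000xg for 90 min. The supernatant was quantified by TMTpro 16plex LC-MS/MS with channel sums equalised.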

[2] = compound: Cc1nc(Nc2n[nH]c3c2CN(C(=O)N[C@H](CN(C)C)c2ccccc2)C3(C)C)c2sccc2n1
In short: as §1

[3] = compound: Cc1nc(Nc2ncc(C(=O)Nc3c(C)cccc3Cl)s2)cc(N2CCN(CCO)CC2)n1 [dasatinib]
In short: as §1

[4] = compound: Cc1ncc(-c2ccnc(Nc3ccc(S(C)(=O)=O)cc3)n2)n1C(C)C
In short: as §1

[5] = compound: Cn1cc(-c2ccc3c(c2)CCN3C(=O)Cc2cccc(C(F)(F)F)c2)c2c(N)ncnc21
In short: as §1

[6] = compound: Cn1cc(CNCC2CCN(c3ncc(C(=O)NO)cn3)CC2)c2ccccc21 [quisinostat]
In short: as §1

[7] = compound: Cn1cncc1[C@@](N)(c1ccc(Cl)cc1)c1ccc2c(c1)c(-c1cccc(Cl)c1)cc(=O)n2C [tipifarnib]
In short: as §1

[8] = compound: NC(=O)Nc1cc(-c2cccc(F)c2)sc1C(=O)N[C@H]1CCCNC1
In short: as §1

[9] = compound: NC(=O)c1cnc(N[C@@H]2CCCC[C@@H]2N)nc1Nc1cccc(-n2nccn2)c1
In short: as §1

[10] = compound: NC1(c2ccc(-c3nc4ccn5c(=O)[nH]nc5c4cc3-c3ccccc3)cc2)CCC1
In short: as §1

Measured: log2 fold change

NIPSNAP2 (UniProt O75323)
inactive: [1] -0.039 | [2] -0.006 | [3] -0.016 | [4] -0.084 | [5] 0.01 | [6] -0.01 | [7] -0.009 | [8] 0.026 | [9] 0.009 | [10] -0.068

NEMF (UniProt O60524)
inactive: [1] -0.001 | [2] -0.003 | [3] -0.006 | [4] -0.032 | [5] 0.011 | [6] -0.026 | [7] 0.008 | [8] 0.021 | [9] -0.018 | [10] -0.021

NEK1 isoform 3 (UniProt Q96PY6)
inactive: [1] 0.031 | [2] -0.077 | [3] -0.004 | [4] 0.008 | [5] -0.032 | [6] -0.062 | [7] 0.039 | [8] 0.047 | [9] 0.123 | [10] -0.003

NDUFB9 (UniProt Q9Y6M9)
inactive: [1] 0.058 | [2] 0.022 | [3] 0.019 | [4] -0.011 | [5] -0.004 | [6] 0.064 | [7] 0.031 | [8] -0.015 | [9] 0.012 | [10] 0.043

NGRN (UniProt Q9NPE2)
inactive: [1] -0.001 | [2] 0.013 | [3] -0.019 | [4] 0.028 | [5] 0.031 | [6] -0.031 | [7] 0.013 | [8] -0.013 | [9] 0.058 | [10] -0.042

NEDD4L (UniProt Q96PU5)
inactive: [1] 0.033 | [2] 0.042 | [3] -0.04 | [4] -0.037 | [5] 0.023 | [6] -0.009 | [7] 0.025 | [8] 0.026 | [9] 0.022 | [10] 0.073

NLE1 (UniProt Q9NVX2)
inactive: [1] 0.013 | [2] -0.005 | [3] -0.027 | [4] 0.038 | [5] -0.026 | [6] 0.02 | [7] 0.044 | [8] -0.034 | [9] 0.01 | [10] -0.019

NDUFA6 (UniProt P56556)
inactive: [1] 0.013 | [2] 0.005 | [3] -0.01 | [4] -0.015 | [5] 0.045 | [6] -0.128 | [7] -0.043 | [8] -0.014 | [9] 0.014 | [10] 0.03

NDUFS5 (UniProt O43920)
inactive: [1] 0.011 | [2] -0.029 | [3] 0.015 | [4] 0.012 | [5] -0.031 | [6] -0.044 | [7] 0.011 | [8] 0.042 | [9] -0.007 | [10] 0.047

NKAP (UniProt Q8N5F7)
inactive: [1] 0.034 | [2] 0.06 | [3] -0.047 | [4] -0.088 | [5] -0.086 | [6] -0.049 | [7] -0.028 | [8] -0.034 | [9] 0 | [10] -0.034

NIPSNAP1 (UniProt Q9BPW8)
inactive: [1] 0.101 | [2] 0.021 | [3] -0.032 | [4] 0.003 | [5] -0.017 | [6] -0.015 | [7] -0.009 | [8] 0.042 | [9] -0.004 | [10] -0.049

NFKBIA (UniProt P25963)
inactive: [1] 0.236 | [2] -0.148 | [3] -0.151 | [4] -0.177 | [5] 0.096 | [6] 0.052 | [7] 0.053 | [8] -0.027 | [9] -0.042 | [10] -0.145

NF2 (UniProt P35240)
inactive: [1] -0.03 | [2] 0.002 | [3] -0.044 | [4] 0.022 | [5] 0.052 | [6] -0.014 | [7] -0.038 | [8] 0.002 | [9] 0.054 | [10] 0.044

NDUFA9 (UniProt Q16795)
inactive: [1] 0.03 | [2] 0.028 | [3] 0.023 | [4] 0.054 | [5] 0.041 | [6] 0.078 | [7] 0.014 | [8] -0.061 | [9] 0.042 | [10] 0.094

NDUFA12 (UniProt Q9UI09)
inactive: [1] -0.022 | [2] -0.031 | [3] -0.055 | [4] -0.028 | [5] -0.034 | [6] -0.033 | [7] -0.053 | [8] 0.04 | [9] -0.041 | [10] 0.029

NELFB isoform 2 (UniProt Q8WX92)
inactive: [1] 0.024 | [2] -0.01 | [3] -0.025 | [4] 0 | [5] 0.01 | [6] -0.02 | [7] -0.014 | [8] 0 | [9] 0.005 | [10] -0.006

NDUFA5 (UniProt Q16718)
inactive: [1] 0.071 | [2] 0.05 | [3] 0.035 | [4] 0.09 | [5] 0.026 | [6] 0.015 | [7] 0.04 | [8] -0.039 | [9] -0.028 | [10] 0.051

NFX1 (UniProt Q12986)
inactive: [1] -0.019 | [2] 0.068 | [3] 0.079 | [4] 0.062 | [5] 0.001 | [6] -0.038 | [7] -0.037 | [8] 0.009 | [9] 0.028 | [10] -0.038

NEK3 (UniProt P51956)
inactive: [1] -0.093 | [2] 0.014 | [3] -0.003 | [4] 0.023 | [5] -0.048 | [6] -0.073 | [7] 0.007 | [8] 0.015 | [9] -0.094 | [10] -0.056

NDUFV1 (UniProt P49821)
inactive: [1] -0.028 | [2] 0.026 | [3] -0.001 | [4] -0.022 | [5] -0.044 | [6] 0.054 | [7] 0.024 | [8] -0.006 | [9] -0.011 | [10] -0.014

NFATC3 (UniProt Q12968)
inactive: [1] -0.022 | [2] 0.023 | [3] -0.067 | [4] -0.002 | [5] 0.041 | [6] -0.096 | [7] -0.007 | [8] 0.04 | [9] 0.027 | [10] 0.011

NDUFB5 (UniProt O43674)
inactive: [1] 0.002 | [2] -0.013 | [3] -0.012 | [4] 0.017 | [5] 0.008 | [6] 0.03 | [7] 0.015 | [8] -0.057 | [9] -0.003 | [10] 0.04

NIT2 (UniProt Q9NQR4)
inactive: [1] -0.011 | [2] 0.001 | [3] -0.03 | [4] -0.021 | [5] -0.027 | [6] 0.004 | [7] 0.019 | [8] 0.021 | [9] -0.016 | [10] -0.023

NDUFB4 (UniProt O95168)
inactive: [1] -0.018 | [2] -0.011 | [3] 0.031 | [4] -0.019 | [5] -0.035 | [6] 0.059 | [7] 0.019 | [8] 0.013 | [9] 0.014 | [10] -0.038

Reprinted from the listing (eight entries):
NEK1 isoform 3 (UniProt Q96PY6)
inactive: [1] 0.031 | [2] -0.077 | [3] -0.004 | [4] 0.008 | [5] -0.032 | [6] -0.062 | [7] 0.039 | [8] 0.047 | [9] 0.123 | [10] -0.003

NDUFB9 (UniProt Q9Y6M9)
inactive: [1] 0.058 | [2] 0.022 | [3] 0.019 | [4] -0.011 | [5] -0.004 | [6] 0.064 | [7] 0.031 | [8] -0.015 | [9] 0.012 | [10] 0.043

NGRN (UniProt Q9NPE2)
inactive: [1] -0.001 | [2] 0.013 | [3] -0.019 | [4] 0.028 | [5] 0.031 | [6] -0.031 | [7] 0.013 | [8] -0.013 | [9] 0.058 | [10] -0.042

NEDD4L (UniProt Q96PU5)
inactive: [1] 0.033 | [2] 0.042 | [3] -0.04 | [4] -0.037 | [5] 0.023 | [6] -0.009 | [7] 0.025 | [8] 0.026 | [9] 0.022 | [10] 0.073

NLE1 (UniProt Q9NVX2)
inactive: [1] 0.013 | [2] -0.005 | [3] -0.027 | [4] 0.038 | [5] -0.026 | [6] 0.02 | [7] 0.044 | [8] -0.034 | [9] 0.01 | [10] -0.019

NDUFA6 (UniProt P56556)
inactive: [1] 0.013 | [2] 0.005 | [3] -0.01 | [4] -0.015 | [5] 0.045 | [6] -0.128 | [7] -0.043 | [8] -0.014 | [9] 0.014 | [10] 0.03

NDUFS5 (UniProt O43920)
inactive: [1] 0.011 | [2] -0.029 | [3] 0.015 | [4] 0.012 | [5] -0.031 | [6] -0.044 | [7] 0.011 | [8] 0.042 | [9] -0.007 | [10] 0.047

NKAP (UniProt Q8N5F7)
inactive: [1] 0.034 | [2] 0.06 | [3] -0.047 | [4] -0.088 | [5] -0.086 | [6] -0.049 | [7] -0.028 | [8] -0.034 | [9] 0 | [10] -0.034

Remaining list, next part:

NDUFAF2 (UniProt Q8N183)
inactive: [1] 0.011 | [2] 0.016 | [3] -0.017 | [4] -0.014 | [5] 0.008 | [6] -0.01 | [7] -0.099 | [8] -0.011 | [9] 0.032 | [10] -0.002

NECTIN2 (UniProt Q92692)
inactive: [1] 0.032 | [2] -0.03 | [3] -0.029 | [4] 0.014 | [5] -0.002 | [6] -0.009 | [7] 0.023 | [8] -0.021 | [9] 0.015 | [10] 0.038

NDUFB6 (UniProt O95139)
inactive: [1] -0.004 | [2] 0.009 | [3] 0.074 | [4] 0.004 | [5] -0.049 | [6] -0.066 | [7] -0.04 | [8] -0.01 | [9] -0.009 | [10] 0.009

NDUFB8 (UniProt O95169)
inactive: [1] 0.066 | [2] 0.006 | [3] -0.027 | [4] 0.095 | [5] -0.012 | [6] 0 | [7] -0.02 | [8] -0.034 | [9] -0.012 | [10] -0.017

NET1 (UniProt Q7Z628)
inactive: [1] 0.044 | [2] 0.077 | [4] -0.144 | [6] -0.038 | [7] 0.08 | [8] 0.154 | [10] 0.012

NFRKB isoform 2 (UniProt Q6P4R8)
inactive: [1] -0.136 | [2] 0.028 | [4] 0.046 | [6] -0.095 | [7] 0.045 | [8] 0.055 | [9] -0.05 | [10] 0.026
